Measurements reported in PubChem BioAssay AID1259254 (NCATS, 2017)
The deposit covers about 59,000 reagents; this is a random part of them. Over the whole deposit, about 1,550 (2.6%) were called active. 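G2 share is only a proxy for re-replication; each gene was hit by three separate siRNAs, and active genes were retested.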 Raw values vary from plate to plate and are shown uncorrected. The numbers tell different reagents against one gene apart. Not stated in the record: the amount of reagent.

- Screen: 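Genome-wide screen for genes that prevent DNA re-replication in cancer cells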 (primary screen)
- System: human HCT116 colorectal cancer cells
- Knock-down reagent: single siRNA against human genes
- Timing: 3 days
- Detection: 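Imaged Hoechst DNA stain sorts each cell into a cycle phase by DNA amount; per plate, G2 fraction set to 0% for non-targeting and 100% for GMNN siRNA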
- Direction: G2 robust z-score and G2 cells, % of GMNN control: higher = more G2 cells, more excess DNA replication; raw share of cells in G2: higher = larger share of cells with G2 DNA content
- Rule for the call: 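Active siRNAs have a G2 robust z of 5 or more median absolute deviations over the median, which in these data means about 38% or higher of GMNN control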

| target | reagent no. | G2 robust z-score | G2 cells, % of GMNN control | raw share of cells in G2 (%) | call |
| --- | --- | --- | --- | --- | --- |
| HS3ST3B1 (heparan sulfate-glucosamine 3-sulfotransferase 3B1) | 1 | 2.11 | 17.8 | 12 | inactive |
| HS3ST3B1 (heparan sulfate-glucosamine 3-sulfotransferase 3B1) | 2 | 0.334 | 5.32 | 5.01 | inactive |
| HS3ST3B1 (heparan sulfate-glucosamine 3-sulfotransferase 3B1) | 3 | 7.26 | 54.1 | 25.6 | active |
| MIPEP (mitochondrial intermediate peptidase) | 1 | 0.207 | 4.42 | 5.56 | inactive |
| MIPEP (mitochondrial intermediate peptidase) | 2 | 3.19 | 25.4 | 14.4 | inactive |
| MIPEP (mitochondrial intermediate peptidase) | 3 | 0.0137 | 3.06 | 5.99 | inactive |
| DLEC1 (DLEC1 cilia and flagella associated protein) | 1 | 0.396 | 5.76 | 7.93 | inactive |
| DLEC1 (DLEC1 cilia and flagella associated protein) | 2 | -0.574 | -1.07 | 3.5 | inactive |
| DLEC1 (DLEC1 cilia and flagella associated protein) | 3 | -0.296 | 0.885 | 3.73 | inactive |
| ZNF621 (zinc finger protein 621) | 1 | -0.623 | -1.41 | 2.6 | inactive |
| ZNF621 (zinc finger protein 621) | 2 | -0.171 | 1.76 | 3.78 | inactive |
| ZNF621 (zinc finger protein 621) | 3 | 1.87 | 16.1 | 9.18 | inactive |
| TREML4 (triggering receptor expressed on myeloid cells like 4) | 1 | 0.3 | 5.08 | 5.49 | inactive |
| TREML4 (triggering receptor expressed on myeloid cells like 4) | 2 | 0.128 | 3.87 | 4.54 | inactive |
| TREML4 (triggering receptor expressed on myeloid cells like 4) | 3 | -0.393 | 0.203 | 3.33 | inactive |
| ZNF778 (zinc finger protein 778) | 1 | 0.584 | 7.07 | 7.67 | inactive |
| ZNF778 (zinc finger protein 778) | 2 | 0.1 | 3.67 | 7.71 | inactive |
| ZNF778 (zinc finger protein 778) | 3 | -0.917 | -3.48 | 3.43 | inactive |
| APPL2 | 1 | -0.304 | 0.831 | 4.68 | inactive |
| APPL2 | 2 | 1.8 | 15.7 | 13.3 | inactive |
| APPL2 | 3 | -0.438 | -0.114 | 4.4 | inactive |
| HUS1B (HUS1 checkpoint clamp component B) | 1 | 0.121 | 3.82 | 5.61 | inactive |
| HUS1B (HUS1 checkpoint clamp component B) | 2 | -0.753 | -2.33 | 2.36 | inactive |
| HUS1B (HUS1 checkpoint clamp component B) | 3 | 0.163 | 4.11 | 4.07 | inactive |
| SIRT2 (sirtuin 2) | 1 | -0.152 | 1.9 | 4.52 | inactive |
| SIRT2 (sirtuin 2) | 2 | 0.378 | 5.63 | 8.63 | inactive |
| SIRT2 (sirtuin 2) | 3 | -1.17 | -5.27 | 2.39 | inactive |
| ZNF639 (zinc finger protein 639) | 1 | 1.64 | 14.5 | 7.92 | inactive |
| ZNF639 (zinc finger protein 639) | 2 | -0.151 | 1.91 | 6.77 | inactive |
| ZNF639 (zinc finger protein 639) | 3 | -0.306 | 0.812 | 3.89 | inactive |
| LRBA (LPS responsive beige-like anchor protein) | 1 | 0.898 | 9.28 | 7.14 | inactive |
| LRBA (LPS responsive beige-like anchor protein) | 2 | 0.351 | 5.44 | 7.39 | inactive |
| LRBA (LPS responsive beige-like anchor protein) | 3 | 0.542 | 6.78 | 5.57 | inactive |
| MUC1 (mucin 1, cell surface associated) | 1 | -0.269 | 1.08 | 5.43 | inactive |
| MUC1 (mucin 1, cell surface associated) | 2 | 0.705 | 7.93 | 7.35 | inactive |
| MUC1 (mucin 1, cell surface associated) | 3 | -0.219 | 1.42 | 3.87 | inactive |
| LDLRAD1 (low density lipoprotein receptor class A domain containing 1) | 1 | 0.826 | 8.78 | 6.78 | inactive |
| LDLRAD1 (low density lipoprotein receptor class A domain containing 1) | 2 | 1.14 | 11 | 8.19 | inactive |
| LDLRAD1 (low density lipoprotein receptor class A domain containing 1) | 3 | -0.851 | -3.02 | 3.34 | inactive |
| NKG7 (natural killer cell granule protein 7) | 1 | -0.167 | 1.79 | 4 | inactive |
| NKG7 (natural killer cell granule protein 7) | 2 | 0.117 | 3.79 | 6.58 | inactive |
| NKG7 (natural killer cell granule protein 7) | 3 | 0.34 | 5.36 | 6.34 | inactive |
| CAB39L (calcium binding protein 39 like) | 1 | 1.02 | 10.1 | 6.37 | inactive |
| CAB39L (calcium binding protein 39 like) | 2 | -0.483 | -0.434 | 5.71 | inactive |
| CAB39L (calcium binding protein 39 like) | 3 | 2.3 | 19.2 | 9.65 | inactive |
| C19orf25 (chromosome 19 open reading frame 25) | 1 | -0.868 | -3.14 | 2.78 | inactive |
| C19orf25 (chromosome 19 open reading frame 25) | 2 | 0.816 | 8.71 | 5.6 | inactive |
| C19orf25 (chromosome 19 open reading frame 25) | 3 | -0.196 | 1.59 | 3.62 | inactive |
| LINC00290 (long independently transcribed non-coding RNA 290) | 1 | -0.991 | -4.01 | 2.08 | inactive |
| LINC00290 (long independently transcribed non-coding RNA 290) | 2 | -1.31 | -6.26 | 1.16 | inactive |
| LINC00290 (long independently transcribed non-coding RNA 290) | 3 | -0.26 | 1.14 | 3.27 | inactive |
| CCDC88C (coiled-coil and HOOK domain protein 88C) | 1 | 0.772 | 8.4 | 6.86 | inactive |
| CCDC88C (coiled-coil and HOOK domain protein 88C) | 2 | 0.356 | 5.47 | 5.49 | inactive |
| CCDC88C (coiled-coil and HOOK domain protein 88C) | 3 | 0.193 | 4.32 | 4.59 | inactive |
| LSM8 (LSM8 homolog, U6 small nuclear RNA associated) | 1 | -1.18 | -5.32 | 1.76 | inactive |
| LSM8 (LSM8 homolog, U6 small nuclear RNA associated) | 2 | -0.642 | -1.55 | 5.25 | inactive |
| LSM8 (LSM8 homolog, U6 small nuclear RNA associated) | 3 | 2.14 | 18.1 | 10.9 | inactive |
| PPP3CB (protein phosphatase 3 catalytic subunit beta) | 1 | -0.612 | -1.34 | 4.36 | inactive |
| PPP3CB (protein phosphatase 3 catalytic subunit beta) | 2 | 0.00615 | 3.01 | 5.21 | inactive |
| PPP3CB (protein phosphatase 3 catalytic subunit beta) | 3 | -0.186 | 1.66 | 4 | inactive |
| OR56A5 (olfactory receptor family 56 subfamily A member 5) | 1 | 4.5 | 34.6 | 15.6 | inactive |
| OR56A5 (olfactory receptor family 56 subfamily A member 5) | 2 | -0.00633 | 2.92 | 4.68 | inactive |
| OR56A5 (olfactory receptor family 56 subfamily A member 5) | 3 | 10.3 | 75.3 | 36.9 | active |
| PDE7A (phosphodiesterase 7A) | 1 | 3.64 | 28.6 | 14.1 | inactive |
| PDE7A (phosphodiesterase 7A) | 2 | -0.322 | 0.699 | 4.51 | inactive |
| PDE7A (phosphodiesterase 7A) | 3 | 0.502 | 6.5 | 5.45 | inactive |
| SCN1A (sodium voltage-gated channel alpha subunit 1) | 1 | -0.455 | -0.232 | 5.2 | inactive |
| SCN1A (sodium voltage-gated channel alpha subunit 1) | 2 | 0.675 | 7.71 | 7.39 | inactive |
| SCN1A (sodium voltage-gated channel alpha subunit 1) | 3 | 1.8 | 15.6 | 10.5 | inactive |

Records listed so far marked active:
| target | reagent no. | G2 robust z-score | G2 cells, % of GMNN control | raw share of cells in G2 (%) | call |
| --- | --- | --- | --- | --- | --- |
| HS3ST3B1 (heparan sulfate-glucosamine 3-sulfotransferase 3B1) | 3 | 7.26 | 54.1 | 25.6 | active |
| OR56A5 (olfactory receptor family 56 subfamily A member 5) | 3 | 10.3 | 75.3 | 36.9 | active |
